Data from PubChem BioAssay AID504834 (National Center for Advancing Translational Sciences (NCATS), 2011).
Among all 320,000 compounds or so, about 22,000 (6.9%) were called active. The inconclusive results got no clear call from the source; some entries with a clear call stand among them for comparison. Calls follow the shape of the dose curve; as a rule, active = well fitted inhibition curve with a large enough effect; inconclusive = small, poorly fitted or top-dose-only effect, or another doubt; inactive = no such curve, though single readings can be large or run the other way. Potencies of inconclusive entries are doubtful fits and often do not repeat.

assay: Primary qHTS for delayed death inhibitors of the malarial parasite plastid, 96 hour incubation; conditions: P. falciparum luciferase reporter growth; series mostly up to 28.7 µM
Summary of the method: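 Erythrocytes infected with luciferase-expressing P. falciparum were dispensed at 2% hematocrit and 0.05% parasitemia (final), then incubated with compounds 96 hours at 37 C in 5% CO2. Luminescence after detection reagent addition reported growth.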
Potency is read from the fitted curve at half-maximal effect.

Structure (SMILES) | Potency
Cc1ccc(NC(=O)CCSc2nc(C)cc(C)n2)cc1 | inconclusive: 18.5 µM [inhibitor, single point]
COc1ccc(C)cc1NC(=O)CCCN1C(=O)C(c2ccccc2)Oc2cccnc21 (stereo not given) | inactive
CCc1ccc(NC(=O)CC2C(=O)NCCN2C(=O)c2ccccc2OC)cc1 (stereo not given) | inconclusive: 20.8 µM [inhibitor, single point]
COc1ccc(NC(=O)C2=NN(C3CCS(=O)(=O)C3)C(=O)CC2)cn1 (stereo not given) | inconclusive: 10.4 µM [inhibitor, single point]
CCNC(=S)N(CCc1cccc(C)c1)Cc1cc2cc(OC)c(OC)cc2[nH]c1=O | inactive
CCOc1ccccc1N1CCN(CC(=O)Nc2ccccc2C(=O)NC2CC2)CC1 | inconclusive: 10.4 µM [inhibitor, single point]
CCCCN(C(=O)/C=C/c1ccccc1)C1CCS(=O)(=O)C1 (stereo not given) | inconclusive: 11.7 µM [inhibitor, single point]
Cn1ccnc1SCC(=O)N1CCc2ccccc21 | inactive
CS(=O)(=O)N(CC(=O)N1CCCCC1)c1sc2c(c1C#N)CCCC2 | inactive
O=C(O)c1ccc(N2C(=O)CC(SC(=Nc3ccccc3)Nc3ccccc3)C2=O)cc1 (stereo not given) | inconclusive: 9.28 µM [inhibitor, partial curve]
NP(=O)(OCCCc1ccccc1)Oc1ccccc1 (stereo not given) | inconclusive: 2.62 µM [inhibitor, full curve, poor fit]
CC(C)=NNc1nc2c(c(=O)[nH]c(=O)n2C)n1CCCc1ccccc1 | inconclusive: 9.28 µM [inhibitor, partial curve]
Cc1cc(C)nc(N/N=C/c2cc(Br)ccc2O)n1 | inconclusive: 5.22 µM [inhibitor, partial curve]
Cc1cccc(-c2n[nH]c(=S)n2-c2ccccc2)c1[N+](=O)[O-] | inconclusive: 11.7 µM [inhibitor, single point]
COC(=O)c1ccc(NC2c3ncccc3C(=O)N2Cc2cccs2)cc1 (stereo not given) | inconclusive: 10.4 µM [inhibitor, single point]
COC(=O)CN(c1ccccc1C)S(C)(=O)=O | inconclusive: 0.657 µM [inhibitor, partial curve, poor fit]
N/C(COc1cccc(Cl)c1)=N\NS(=O)(=O)c1ccccc1 | inactive
CC(=O)Nc1ccc(S(=O)(=O)NC(C)c2ccccc2)cc1 (stereo not given) | inactive
CCOc1ccc(N2C(=O)Nc3ccccc3C2(O)C(=O)NCc2ccccc2)cc1 (stereo not given) | inconclusive: 18.5 µM [inhibitor, single point]
O=C(O)CSCC(=O)Nc1ccc(C2CCCCC2)cc1 | inconclusive: 1.04 µM [inhibitor, full curve]

Retrieved by compound from the entries so far:
Structure (SMILES) | Potency
CCc1ccc(NC(=O)CC2C(=O)NCCN2C(=O)c2ccccc2OC)cc1 (stereo not given) | inconclusive: 20.8 µM [inhibitor, single point]
O=C(O)c1ccc(N2C(=O)CC(SC(=Nc3ccccc3)Nc3ccccc3)C2=O)cc1 (stereo not given) | inconclusive: 9.28 µM [inhibitor, partial curve]
